The record followed here is US10702592B2, “Peptides and combination of peptides for use in immunotherapy against NHL and other cancers” (Immatics Biotechnologies GmbH, priority 2016, dated 2020).

The subject of one data set is NHL samples. Put plainly: Identification and label-free LC-MS quantitation of HLA-presented peptides: presentation profile/score, NHL vs normal tissues. Conditions: NHL tumors compared to a panel of normal tissues. The arrangement: species or system human; key: very highly over-presented on tumors compared to a panel of normal tissues (+++); highly over-presented on tumors compared to a panel of normal tissues (++); over-presented on tumors compared to a panel of normal tissues (+).

Data set [1] deals with other tumor types (tumor samples vs normal tissues). Nature of the data set: LC-MS detection / over-presentation of peptides on additional tumor types. The conditions noted are these: for Other relevant organs/diseases: additional tumor types on which the peptide was found: over-presented on more than 5% of measured tumor samples, or presented on more than 5% with ratio of geometric means tumor vs normal tissues larger than 3; for Other relevant organs / diseases (additional tumor types with over-presentation): over-presented on >5% of measured tumor samples, or presented on >5% with ratio of geometric means tumor vs normal >3. Details: species or system human.

On to “186 (FLDVSRDFV; listed as Homo sapiens) [compound 186]”, for which the “Peptide Presentation” value with NHL samples was “+”. Besides, in data set [1], the Other relevant organs/diseases entry was “SCLC, CLL”.
With “221 (FLAPDNSLLLA; listed as Homo sapiens) [compound 221]”, the “Peptide Presentation” value in the data set on NHL samples is on record as “+++”. Besides, in data set [1], the Other relevant organs/diseases entry was “Gallbladder Cancer, Bile Duct Cancer” and the “Other relevant organs / diseases (additional tumor types with over-presentation)” value is reported as “AML”.
As to “274 (KLLNLISKL; listed as Homo sapiens) [compound 274]”, the “Peptide Presentation” value in the data set with NHL samples was “+++”. In addition, the Other relevant organs/diseases result in data set [1] was “AML”.
As to “183 (VLFETVLTI; listed as Homo sapiens) [compound 183]”, the “Peptide Presentation” value with NHL samples is “+”. In data set [1], the Other relevant organs/diseases result is recorded as “CLL, AML, Urinary bladder cancer, Uterine Cancer” and the “Other relevant organs / diseases (additional tumor types with over-presentation)” value is listed as “HNSCC”.
As to “215 (QLFEEEIEL; listed as Homo sapiens) [compound 215]”, the “Peptide Presentation” value in the data set on NHL samples is recorded as “+”. Moreover, the Other relevant organs/diseases entry in data set [1] is “RCC, Esophageal Cancer, OC, Uterine Cancer, Gallbladder Cancer, Bile Duct Cancer”.
In the case of “212 (FLIGQGAHV; listed as Homo sapiens) [compound 212]”, the “Peptide Presentation” value in the data set with NHL samples is listed as “+”. Moreover, in data set [1], the Other relevant organs/diseases entry is “CLL, AML, Melanoma” and the “Other relevant organs / diseases (additional tumor types with over-presentation)” value is reported as “HCC”.
As to “97 (LLNFSPGNL; listed as Homo sapiens) [compound 97]”, in the data set on NHL samples, the “Peptide Presentation” value is “+++”. Further, in data set [1], the Other relevant organs/diseases entry is given as “CRC”.
As for “190 (GLIELVDQL; listed as Homo sapiens) [compound 190]”, in the data set with NHL samples, the “Peptide Presentation” value was “++”. Further, the Other relevant organs/diseases result in data set [1] was “HCC, CLL, AML, Melanoma, Uterine Cancer”.
Turning to “101 (SLDQSTWNV; listed as Homo sapiens) [compound 101]”, the “Peptide Presentation” value in the data set on NHL samples was “+++”. For the same substance, the Other relevant organs/diseases entry in data set [1] is listed as “CLL”.
In the case of “25 (FLDTSNQHLL; listed as Homo sapiens) [compound 25]”, in the data set on NHL samples, the “Peptide Presentation” value is “+++”. In addition, the Other relevant organs/diseases entry in data set [1] is “CLL”.
With “107 (VQAVSIPEV; listed as Homo sapiens) [compound 107]”, the “Peptide Presentation” value with NHL samples is on record as “+++”. For the same substance, the “Other relevant organs / diseases (additional tumor types with over-presentation)” value in data set [1] is on record as “CLL, AML”.
For the substance “149 (ILNPVTTKL; listed as Homo sapiens) [compound 149]”, the “Peptide Presentation” value with NHL samples is reported as “+++”. The Other relevant organs/diseases entry in data set [1] is listed as “AML”.
In the same order, the values of “119 (ELCDIILRV; listed as Homo sapiens) [compound 119]” are “+++” and “Melanoma”.
“265 (ILWHFVASL; listed as Homo sapiens) [compound 265]”: the “Peptide Presentation” value in the data set with NHL samples was “+++”. For the same substance, in data set [1], the Other relevant organs/diseases entry is reported as “CLL, Uterine Cancer” and the “Other relevant organs / diseases (additional tumor types with over-presentation)” value is “AML”.
“163 (SIFDAVLKGV; listed as Homo sapiens) [compound 163]”: in the data set on NHL samples, the “Peptide Presentation” value is “+++”. Further, in data set [1], the Other relevant organs/diseases result is given as “RCC, CRC, BRCA, Uterine Cancer” and the “Other relevant organs / diseases (additional tumor types with over-presentation)” value is given as “HCC, Urinary Bladder Cancer, HNSCC”.
Turning to “95 (LLFDLIPVVSV; listed as Homo sapiens) [compound 95]”, the “Peptide Presentation” value in the data set with NHL samples is on record as “+++”. Further, in data set [1], the Other relevant organs/diseases entry was “AML, BRCA, Uterine Cancer” and the “Other relevant organs / diseases (additional tumor types with over-presentation)” value is listed as “HNSCC”.
For the substance “104 (VLLGLPLLV; listed as Homo sapiens) [compound 104]”, the “Peptide Presentation” value in the data set with NHL samples is given as “+++”. Also, in data set [1], the Other relevant organs/diseases result is on record as “CLL, AML”.
As to “213 (YINEDEYEV; listed as Homo sapiens) [compound 213]”, the “Peptide Presentation” value in the data set on NHL samples is “+”. Further, in data set [1], the Other relevant organs/diseases result is listed as “CLL, OC” and the “Other relevant organs / diseases (additional tumor types with over-presentation)” value is “HNSCC”.
Regarding “224 (FLSPLLPLL; listed as Homo sapiens) [compound 224]”, the “Peptide Presentation” value in the data set with NHL samples was “+”. In addition, in data set [1], the Other relevant organs/diseases result is given as “HCC, CLL” and the “Other relevant organs / diseases (additional tumor types with over-presentation)” value was “AML”.
Consider “92 (KLLFEIASA; listed as Homo sapiens) [compound 92]”, for which, in the data set on NHL samples, the “Peptide Presentation” value was “+++”. The Other relevant organs/diseases result in data set [1] was “CLL, AML”.
As for “308 (SLLDQIPEM; listed as Homo sapiens) [compound 308]”, in the data set with NHL samples, the “Peptide Presentation” value was “+”. Besides, in data set [1], the Other relevant organs/diseases result was “RCC, CLL, AML, BRCA, Melanoma, OC, Uterine Cancer, Gallbladder Cancer, Bile Duct Cancer” and the “Other relevant organs / diseases (additional tumor types with over-presentation)” value was “HNSCC”.
As to “226 (GVIDPVPEV; listed as Homo sapiens) [compound 226]”, in the data set with NHL samples, the “Peptide Presentation” value is on record as “+”. In data set [1], the Other relevant organs/diseases result is recorded as “HCC, CLL, AML, Melanoma, OC, Gallbladder Cancer, Bile Duct Cancer” and the “Other relevant organs / diseases (additional tumor types with over-presentation)” value is on record as “HNSCC”.
As for “55 (ILVEVDLVQA; listed as Homo sapiens) [compound 55]”, in the data set on NHL samples, the “Peptide Presentation” value is “++”. Moreover, in data set [1], the Other relevant organs/diseases result is on record as “CLL, Uterine Cancer” and the “Other relevant organs / diseases (additional tumor types with over-presentation)” value is given as “Esophageal Cancer”.
“45 (FILDDSALYL; listed as Homo sapiens) [compound 45]”: in the data set with NHL samples, the “Peptide Presentation” value is “+”. In data set [1], the Other relevant organs/diseases entry is “CLL, Uterine Cancer”.
“33 (LLANIVPIAMLV; listed as Homo sapiens) [compound 33]”: in the data set with NHL samples, the “Peptide Presentation” value is reported as “+++”. In addition, in data set [1], the Other relevant organs/diseases entry is given as “CLL” and the “Other relevant organs / diseases (additional tumor types with over-presentation)” value is “Melanoma”.
In the case of “211 (FIDDLFAFV; listed as Homo sapiens) [compound 211]”, the “Peptide Presentation” value in the data set with NHL samples is listed as “+++”. In addition, the Other relevant organs/diseases entry in data set [1] is reported as “HCC, CLL, AML, Melanoma”.
“82 (FLIDGSSSV; listed as Homo sapiens) [compound 82]”: the “Peptide Presentation” value in the data set with NHL samples was “+++”. Moreover, in data set [1], the Other relevant organs/diseases result is given as “CLL”.
As for “126 (GLSIFIYRL; listed as Homo sapiens) [compound 126]”, in the data set on NHL samples, the “Peptide Presentation” value was “+++”. In addition, the Other relevant organs/diseases result in data set [1] is “Melanoma, Urinary bladder cancer”.
As for “252 (YLGDLIMAL; listed as Homo sapiens) [compound 252]”, in the data set on NHL samples, the “Peptide Presentation” value is recorded as “+”. Besides, in data set [1], the Other relevant organs/diseases result is given as “CLL” and the “Other relevant organs / diseases (additional tumor types with over-presentation)” value was “AML”.
In the case of “27 (FLNQESFDL; listed as Homo sapiens) [compound 27]”, in the data set on NHL samples, the “Peptide Presentation” value is listed as “+++”. In data set [1], the Other relevant organs/diseases result is “CLL, BRCA, Esophageal Cancer, Urinary bladder cancer, Uterine Cancer”.
For the substance “103 (SLQDHLEKV; listed as Homo sapiens) [compound 103]”, the “Peptide Presentation” value in the data set with NHL samples was “+++”. In data set [1], the Other relevant organs/diseases result is listed as “HCC, CLL” and the “Other relevant organs / diseases (additional tumor types with over-presentation)” value is reported as “Uterine Cancer”.
Consider “191 (GLSDISAQV; listed as Homo sapiens) [compound 191]”, for which, in the data set on NHL samples, the “Peptide Presentation” value is given as “+++”. Further, in data set [1], the Other relevant organs/diseases entry is recorded as “CLL, Melanoma, Esophageal Cancer, OC” and the “Other relevant organs / diseases (additional tumor types with over-presentation)” value is on record as “AML”.
In the case of “195 (ALIPDLNQI; listed as Homo sapiens) [compound 195]”, the “Peptide Presentation” value in the data set with NHL samples was “+++”. Also, the Other relevant organs/diseases entry in data set [1] is listed as “Uterine Cancer”.
As for “299 (RLLEEEGVSL; listed as Homo sapiens) [compound 299]”, the “Peptide Presentation” value with NHL samples was “+”. Besides, in data set [1], the Other relevant organs/diseases result is reported as “CRC, AML, BRCA” and the “Other relevant organs / diseases (additional tumor types with over-presentation)” value is given as “Melanoma”.
In the case of “138 (NLINNIFEL; listed as Homo sapiens) [compound 138]”, in the data set on NHL samples, the “Peptide Presentation” value was “+”. For the same substance, the Other relevant organs/diseases entry in data set [1] is recorded as “CLL, AML, Urinary bladder cancer”.
“179 (FVDTNLYFL; listed as Homo sapiens) [compound 179]”: the “Peptide Presentation” value in the data set on NHL samples was “+++”. Moreover, in data set [1], the Other relevant organs/diseases result is listed as “RCC, CLL, Melanoma, Uterine Cancer” and the “Other relevant organs / diseases (additional tumor types with over-presentation)” value was “AML”.
As to “47 (GLLPKLTAL; listed as Homo sapiens) [compound 47]”, in the data set on NHL samples, the “Peptide Presentation” value was “+”. In data set [1], the Other relevant organs/diseases entry is on record as “RCC, Brain Cancer, CRC, HCC, AML, Melanoma, Esophageal Cancer, OC, Uterine Cancer” and the “Other relevant organs / diseases (additional tumor types with over-presentation)” value is reported as “HNSCC”.
In the case of “164 (SLFDGAVISTV; listed as Homo sapiens) [compound 164]”, the “Peptide Presentation” value in the data set with NHL samples is recorded as “+++”. The Other relevant organs/diseases entry in data set [1] is “SCLC, Uterine Cancer”.
For “246 (KLPVPLESV; listed as Homo sapiens) [compound 246]”, the “Peptide Presentation” value with NHL samples was “+”. Moreover, in data set [1], the Other relevant organs/diseases entry is given as “CLL, Melanoma” and the “Other relevant organs / diseases (additional tumor types with over-presentation)” value is recorded as “AML”.
For the substance “93 (KLLGSLQLL; listed as Homo sapiens) [compound 93]”, the “Peptide Presentation” value with NHL samples is recorded as “+++”. Also, in data set [1], the Other relevant organs/diseases result was “RCC, BRCA”.
As to “285 (SITAVTPLL; listed as Homo sapiens) [compound 285]”, the “Peptide Presentation” value in the data set on NHL samples is recorded as “+”. Also, the Other relevant organs/diseases entry in data set [1] is on record as “RCC, AML”.
For “62 (ALAPYLDLL; listed as Homo sapiens) [compound 62]”, the “Peptide Presentation” value in the data set on NHL samples is “+++”. The Other relevant organs/diseases entry in data set [1] is recorded as “AML, Melanoma, Urinary bladder cancer”.
